# Data: publication PMC7819943, “Rice protein-binding microarrays: a tool to detect cis-acting elements near promoter regions in rice”
# The other results are listed elsewhere or left out.
# Molecular target: T1, OsSMF1 (Oryza sativa, UniProt Q6ZLB0 1-436)
# T1 sequence: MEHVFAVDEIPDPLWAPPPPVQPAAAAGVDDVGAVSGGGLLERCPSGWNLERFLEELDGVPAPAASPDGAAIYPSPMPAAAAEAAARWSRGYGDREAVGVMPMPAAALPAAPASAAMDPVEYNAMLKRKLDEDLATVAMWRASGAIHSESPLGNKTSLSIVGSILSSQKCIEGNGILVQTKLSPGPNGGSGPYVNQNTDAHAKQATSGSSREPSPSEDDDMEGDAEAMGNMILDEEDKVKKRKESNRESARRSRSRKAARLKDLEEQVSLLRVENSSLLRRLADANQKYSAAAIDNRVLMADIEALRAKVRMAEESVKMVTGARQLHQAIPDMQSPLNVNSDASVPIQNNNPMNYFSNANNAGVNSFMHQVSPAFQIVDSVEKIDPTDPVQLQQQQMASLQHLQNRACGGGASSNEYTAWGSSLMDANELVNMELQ
# Assay: protein-binding microarray (RPBM); PBS, 2% BSA, 51.3 ng/ul salmon testes DNA, 50 uM zinc acetate, 200 nM TF, 25 C, 1 h; high values mean tight binding
# Details: protein: recombinant; tags: N-terminal polyhistidine and DsRed monomer fusion (pET32a); chain copies: 2; label: CyDye5-dUTP incorporated in the synthesized complementary strand; 3' TTTTT single-stranded linker to array surface; dsDNA, one strand shown
# Outline: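 Per-feature fluorescence intensity (arbitrary units), read on an Axon 4000B scanner, is the binding signal. Transcription factors carrying an N-terminal polyhistidine tag and DsRed fusion were expressed in E. coli BL21-CodonPlus and purified on Ni–NTA. A custom Agilent array, made double-stranded by primer extension with Cy5-dUTP and blocked with 2% BSA, was incubated with 200 nM protein in PBS, 2% BSA, salmon testes DNA and 50 µM zinc acetate at 25 °C for 1 h and then washed.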
row,Sequence,binding signal
1,GACTTGTTTTGGGACATCGATTTTCGGCCTGACACATAGTCGGAGTCACCTAGTGCAG,3800 fluorescence intensity (a.u.)
2,GAATGGCTGCGAGGACAACACGTACGCCGTCTCGGCCGGCCGGAGTCACCTAGTGCAG,3960 fluorescence intensity (a.u.)
3,AAAGGTGTACGTATGTACGTAGATACGTGTAGACCTCACCCGGAGTCACCTAGTGCAG,3580 fluorescence intensity (a.u.)
4,GGCGTAATTAGGCTTAAAAGATTCGTCAGGCAATTTACCCCGGAGTCACCTAGTGCAG,3740 fluorescence intensity (a.u.)
5,GGGCGCGGGAGTAGCAGCCGCGGTGCGGTGAGGTGGCGGGCGGAGTCACCTAGTGCAG,6820 fluorescence intensity (a.u.)
6,TGCCTTCTTCCTCCAGATTCCGTCCATCTGTGCAGAGAGTCGGAGTCACCTAGTGCAG,3510 fluorescence intensity (a.u.)
7,TAGGTGAAGTTTAGAAAAGATTAGAGCCTTCACATTGAGGCGGAGTCACCTAGTGCAG,15400 fluorescence intensity (a.u.)
8,ATTGTTGGGTTTAGTCCCACATCAGTAATTGATGATGGGGCGGAGTCACCTAGTGCAG,3370 fluorescence intensity (a.u.)
9,CGGCCGTGTTAAGCCTCTTCCAAAGTCAGCTGAGTTGTGCCGGAGTCACCTAGTGCAG,5460 fluorescence intensity (a.u.)
10,TCCAAAATCAATAAATTCTAGCACGTCACTCCGTAAGTACCGGAGTCACCTAGTGCAG,5120 fluorescence intensity (a.u.)
11,CAGAAAATAGTTGCTCCCGAAATTGGAATCTGAAAATCGCCGGAGTCACCTAGTGCAG,24900 fluorescence intensity (a.u.)
12,CGTACGGTCTCGATCGCCGGCCACGTGGTGGATATTAAATCGGAGTCACCTAGTGCAG,8860 fluorescence intensity (a.u.)
13,TAACTCACGAGGTTCCCCTGAAGGACATCAACACGGCATTCGGAGTCACCTAGTGCAG,3460 fluorescence intensity (a.u.)
14,CTCCACATAACTAGAAATATGATGTGGCAACTTGTATAGTCGGAGTCACCTAGTGCAG,14100 fluorescence intensity (a.u.)
15,TTCCACCACACGTGGAATCGTGGATTGCCAAATTGCCATGCGGAGTCACCTAGTGCAG,5610 fluorescence intensity (a.u.)
16,TACAGCAGTAAGATGCGTCGCCACGTTGTTTCACATTGCACGGAGTCACCTAGTGCAG,5760 fluorescence intensity (a.u.)
17,GTTTTCTACTGTGCACGTGCGTACGTTGGTTTCCTCTTGGCGGAGTCACCTAGTGCAG,3580 fluorescence intensity (a.u.)
18,ACCAGTGCGCCACTGCCAGCGCAGCACCCGCCCGGTTTAACGGAGTCACCTAGTGCAG,3240 fluorescence intensity (a.u.)
19,ACGCTCAGCTTCTCGAAGCACACGTCGCGTCCCACCACGTCGGAGTCACCTAGTGCAG,4040 fluorescence intensity (a.u.)
20,ACTTTGAGTAGAGTTAGTAGTACAACCCTGGCCCATGACGCGGAGTCACCTAGTGCAG,25800 fluorescence intensity (a.u.)
21,GGTCGAGATATCCCGTATCGTGATTCAGCCATATAAATCACGGAGTCACCTAGTGCAG,3890 fluorescence intensity (a.u.)

row,Sequence,binding signal
1,TCCATGATTTGTCACGTGGGTGTTCAGTGCTATAGCTCCTCGGAGTCACCTAGTGCAG,4170 fluorescence intensity (a.u.)
2,TTAGCAGAAGCCGCGCACCACGCGCACGCGCACGTCCGCGCGGAGTCACCTAGTGCAG,5320 fluorescence intensity (a.u.)
3,GAGTAGGCCCTGACGGCGACCCTCGCGGTCATGCCCAGCACGGAGTCACCTAGTGCAG,4610 fluorescence intensity (a.u.)
4,TCTAGAGGAATGAGCGGGAGAAATGGAGAGAAAAGAGAGGCGGAGTCACCTAGTGCAG,3210 fluorescence intensity (a.u.)
5,CACGTACACAATTATGTTGGCTATAGTGAATCCTAGATTGCGGAGTCACCTAGTGCAG,3170 fluorescence intensity (a.u.)
6,CGGCCGTGCCGCTTCCGAGTTCGTCCGTGTGCACTGCCCTCGGAGTCACCTAGTGCAG,3360 fluorescence intensity (a.u.)
7,GGCAACCGCCCTTAAGGTGTGAGACAGCACGACAACGCCCCGGAGTCACCTAGTGCAG,3690 fluorescence intensity (a.u.)
8,AAAGCTCGCGGCGTAAAGAAGTTGCTGCGTAATGCATGCCCGGAGTCACCTAGTGCAG,3190 fluorescence intensity (a.u.)
9,CTTAAAGCAGTTTGACTTTGACCAAAGTCAAAACGTCTTACGGAGTCACCTAGTGCAG,40600 fluorescence intensity (a.u.)
10,ACGCCTCACCTCACCTCACCTCACCGCCGTCTCCTTCCTCCGGAGTCACCTAGTGCAG,3280 fluorescence intensity (a.u.)
11,ATCGTTTTCTGTCTCTTACGTGTACCTTTCAATACCCATCCGGAGTCACCTAGTGCAG,10200 fluorescence intensity (a.u.)
12,CCAACTAAAGCACGCCTTGCCATTGGTTGACTCTGCACCTCGGAGTCACCTAGTGCAG,3890 fluorescence intensity (a.u.)
13,CCTCTCTTAACACTGCACACTGCCAACTTATCCATCAATTCGGAGTCACCTAGTGCAG,3160 fluorescence intensity (a.u.)
14,TCTCAAGGCCCTCGTCCTGGTACGCCATTAATACCCACCACGGAGTCACCTAGTGCAG,25400 fluorescence intensity (a.u.)
15,TATAACTTACTTTCCTCTGACATAGATCGATATCTAGACCCGGAGTCACCTAGTGCAG,3630 fluorescence intensity (a.u.)
16,GTCACCTTAACCTCAGTGTTGTTTCACCTGCCACGCCAGCCGGAGTCACCTAGTGCAG,7130 fluorescence intensity (a.u.)
17,ACAGGCCATACTTGGACCTAACGTAGTGACGTTGCCACCGCGGAGTCACCTAGTGCAG,4860 fluorescence intensity (a.u.)
18,GTTGTCCTAGTCATCGGACGCCGCCCACCTACCCGACTACCGGAGTCACCTAGTGCAG,9400 fluorescence intensity (a.u.)
19,ATGCATGCTCGATCACACACACACACACGTTGTTGTTATCCGGAGTCACCTAGTGCAG,4010 fluorescence intensity (a.u.)
20,GGGGTGCCTCGAACGTCGCATCCCGTAGGATGATCCAACGCGGAGTCACCTAGTGCAG,3360 fluorescence intensity (a.u.)
21,GGGAGGCTCAAACGAAGCCACGCAGTCATACTCATATGTGCGGAGTCACCTAGTGCAG,5170 fluorescence intensity (a.u.)

# Two records drawn at random from the list so far, as already listed:
row,Sequence,binding signal
6,CGGCCGTGCCGCTTCCGAGTTCGTCCGTGTGCACTGCCCTCGGAGTCACCTAGTGCAG,3360 fluorescence intensity (a.u.)
19,ATGCATGCTCGATCACACACACACACACGTTGTTGTTATCCGGAGTCACCTAGTGCAG,4010 fluorescence intensity (a.u.)
